Some of the results follow.
B1: il2ra_site1_3nfp_normal_mot_HHH_b2_01680_af2_000000278_0001_1_15_H_._HHH_b2_05745_0001_0000200008_0000001_0 (protein)
chain: SSSSDLHEFVEKVFRELFRLAREGDPEEARELVEEAIQLARELNDESALRKLELALKIIEGSSSS
B2: il2ra_site2_3nfp_sap_20_mot_b0be08dbeb19038e97ce33ab5425b229_0001_000000099_0001_16_33_H_._94ba4ec743f669b1dff215a975ef15fa_0001_1_0001_0000100002_0000001_0_000 … (protein)
chain: SEVEAAVRRIRENPERAEFLLWYVILRLAEELNVPPEEAARILEELLEELGNPELVEVVERLEKK
B3: il2ra_site2_2erj_sap_24_mot_HHH_b1_06627_000000072_0001_40_54_H_._HHH_b1_00814_0001_0000100002_0000001_0_0001 (protein)
chain: SSSSSDAHELAARAVEETIRAEREGDPEEAREILEEALEEARELNNELVVRFLELALEDLSSSSS
B4: il2ra_site2_3nfp_normal_mot_HHH_b1_05437_000000005_0001_40_57_H_._240341e08b947b301b1390bbd516957c_0001_af2_0001_0000300009_0000001_0 (protein)
chain: DEEFFEEILRLLENGDPEEARRVLARLAELAYEKNDFELFALVQELLFLILHDPEKAEELARKIR
B5: il2ra_site2_2erj_sap_26_mot_64bd02d26d05ce9f1a62b616cea0b888_0001_af2_000000029_0001_36_49_H_._HHH_b1_06641_0001_0000100005_0000001_0_0001 (protein)
chain: SSSSNEEASRLAREAFEELHRLFKEGDEEEFEELVEEVRERLERLGDPEAAKTIKRVAEFASSSS
B6: il2ra_site2_2erj_normal_mot_HHH_b2_04744_000000294_0001_42_58_H_._HHH_b1_07967_af2_0001_0000500022_0000001_0 (protein)
chain: SSSSDEEERLEELLKELEELSRKRDFHRFAEVFSEILELVEENNDEEAALIAFRIMREHFGSSSS
B7: il2ra_site2_3nfp_normal_mot_HHH_b1_05627_af2_000000038_0001_43_56_H_._HHH_b2_03760_0001_0000100003_0000001_0 (protein)
chain: SSSSSKAERYLEVAVLLLEEALKEGDEEVARRLLEVVESLAEALNDEEIQERLEEIREELSSSSS
B8: il2ra_site1_2b5i_normal_mot_HHH_b2_04910_000000118_0001_1_19_H_._HHH_b2_05178_af2_0001_0000100001_0000001_0_af2pred_dldesign_0_af2pred (protein)
chain: SSSSSDAKKALELFLEAEELYKEGKYDEAIKKLEEALELAKKAKNNSLVKMIELALKQLKSSSSS
B9: il2ra_site1_3nfp_sap_20_mot_HHH_b1_01159_af2_000000107_0001_1_20_H_._HHH_b1_08125_0001_0000600030_0000001_0_0001 (protein)
chain: SSSSDVRQEVNRLLREIMRLINEGDPEEAEELVEEAERLIREANDEWARRLLEQLKEKIDSSSSS
B10: il2ra_site2_3nfp_normal_mot_HHH_b1_06399_000000296_0001_43_57_H_._28a7dda1a33635c05f5ab621834c8d3e_0001_0001_0000200026_0000001_0 (protein)
chain: DEEIREALRHALEAGFPPEQVVFAVLALLLEKGIPPEEVHEIIEKAIEELGDPELQRVVEEFKQR
B11: il2ra_site2_2erj_sap_31_mot_HHH_b1_00839_000000020_0001_43_57_H_._HHH_b1_08027_0001_0000600039_0000001_0_0001 (protein)
chain: SSSSDETAERVAELIRRAVEAAENGNPEEAEELLREALEVAEEGNNPELARAVELMLKFLSSSSS
B12: il2ra_site1_2b5i_sap_27_mot_2012b86ae8029c2c8ab6d311e818aa61_0001_af2_000000125_0001_35_49_H_._8e6b26e28a7d461b936e264dc559eb07_0001_0001_0000300024_0000001_0_0 … (protein)
chain: SSSSSSDVEERVEELIELAKKLEDPVERKRVLTLARKIAKKHNRPELEKRVEEVRKELESSSSSS
B13: il2ra_site2_3nfp_sap_20_mot_HHH_b1_06577_af2_000000152_0001_20_36_H_._715270f0c9e4bd6ea7f8f80f44138a82_0001_1_0001_0000600047_0000001_0_0001 (protein)
chain: SSSSDKAEEYLEIALELLRRALEHGDEESFKSILETAKAMAESNRDEEAKEELKELEELLSSSSS
B14: il2ra_site2_2erj_normal_mot_HHH_b2_07287_af2_000000108_0001_40_57_H_._HHH_b1_07249_0001_0000300019_0000001_0 (protein)
chain: SSSSDEFHEANRLWREIHEAVQEGDEELVRRLLEELQEFAEEYNNKAAEAVIRIVEQVLNSSSSS
B15: il2ra_site2_3nfp_normal_mot_HHH_b2_04451_000000238_0001_21_37_H_._HHH_b1_04560_af2_0001_0000400020_0000001_0 (protein)
chain: SSSSDEEEEEIQELIKEAEELLKEGDPYEALRVLAEATQLAARLGNDELARIILELFEKVQSSSS
B16: il2ra_site2_3nfp_normal_mot_HHH_b2_06150_000000217_0001_39_53_H_._HHH_b2_05833_0001_0000200009_0000001_0_af2pred_0001_1_af2pred_swapped (protein)
chain: SSSDAEERVRELIEEAKELAERGNPEEAREVLAEAAKLAFELGDAELFMEIAELLLRVDELSSSS
B17: il2ra_site1_2b5i_sap_9_mot_HHH_b1_03046_af2_000000154_0001_39_55_H_._HHH_b2_00259_0001_0000500030_0000001_0_0001 (protein)
chain: SSSSSSVREARELFHEADELDRKGDPEEAERVLREAEEIAREAGSRVYLRSIESALKQAESSSSS
B18: il2ra_site2_3nfp_normal_mot_HHH_b1_05627_af2_000000038_0001_43_56_H_._HHH_b1_08236_0001_0000900039_0000001_0 (protein)
chain: SSSSDKRERYLEAALLAIERAIREGDDEIARKHLQAVKALAEDLNDEEILELVEELEELLRSSSS
B19: il2ra_site1_2b5i_normal_mot_3116615af0ee64d731c1c85d8523bf51_0001_000000216_0001_15_32_H_._HHH_b1_07838_af2_0001_0000100001_0000001_0_af2pred_dldesign_0_af2pred (protein)
chain: SSSSSALEKEVEETLAKADELKAAGKRREALEALEKIHKKLSAADAEDLQEKVEKKAKELSSSSS

What follows are binders tested against il2ra, P01589 (assay: yeast display titration).

Apparent Kd, inactive:
B1 no binding seen, B2 no binding seen, B3 > 555 nM, B4 no binding seen, B5 no binding seen, B6 no binding seen, B7 no binding seen, B8 no binding seen, B9 no binding seen, B10 no binding seen, B11 no binding seen, B12 no binding seen, B13 no binding seen, B14 no binding seen, B15 no binding seen, B16 no binding seen, B17 no binding seen, B18 no binding seen, B19 no binding seen

Source: article PMC10163288
